Assay results from publication PMC5838220.
No constants are given. Whether binding was seen depends on the method and setting. Binding calls can cover weak binding; strength is not graded here. For part of these data: Tags and fused reporters may be left off the sequences shown. For part of these data: Binding seen in cells or lysates may run through a third protein.

Protein sequences, listed by entry. Tags and fused reporters are not part of them. Lines headed by an entry give the natural chain unless they say otherwise; changes in a name come on top.
UniProt Q8IVH8: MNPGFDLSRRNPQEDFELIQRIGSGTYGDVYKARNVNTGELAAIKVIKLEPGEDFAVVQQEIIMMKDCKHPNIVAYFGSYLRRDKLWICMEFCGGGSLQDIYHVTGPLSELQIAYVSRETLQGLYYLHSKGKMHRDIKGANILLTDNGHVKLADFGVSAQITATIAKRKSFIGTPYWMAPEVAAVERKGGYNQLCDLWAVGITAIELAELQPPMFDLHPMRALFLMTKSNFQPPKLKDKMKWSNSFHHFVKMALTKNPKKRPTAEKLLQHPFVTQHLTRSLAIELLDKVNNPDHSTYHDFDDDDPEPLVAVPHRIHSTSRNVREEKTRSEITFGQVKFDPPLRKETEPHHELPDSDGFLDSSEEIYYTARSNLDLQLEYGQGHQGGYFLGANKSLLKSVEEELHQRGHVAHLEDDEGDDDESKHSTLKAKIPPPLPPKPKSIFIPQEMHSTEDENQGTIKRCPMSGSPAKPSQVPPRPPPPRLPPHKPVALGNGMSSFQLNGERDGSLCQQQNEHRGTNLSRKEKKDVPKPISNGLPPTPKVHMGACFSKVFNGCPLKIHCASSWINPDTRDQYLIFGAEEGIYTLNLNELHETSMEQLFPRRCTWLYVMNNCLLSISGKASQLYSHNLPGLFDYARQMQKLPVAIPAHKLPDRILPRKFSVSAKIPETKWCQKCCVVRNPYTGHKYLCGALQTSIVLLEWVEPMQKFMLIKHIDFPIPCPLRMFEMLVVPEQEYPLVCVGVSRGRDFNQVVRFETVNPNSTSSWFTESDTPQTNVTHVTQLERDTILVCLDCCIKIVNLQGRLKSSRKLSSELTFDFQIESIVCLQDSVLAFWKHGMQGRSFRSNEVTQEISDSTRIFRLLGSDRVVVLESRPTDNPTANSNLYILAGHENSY

Columns and labels:
[1] = molecular target: endogenous TFEB (human (endogenous in HEK293A)) (UniProt P19484); assay: co-IP; HEK293A cells transfected with FLAG-tagged WT-MAP4K3, KD-MAP4K3 or HDAC6; endogenous TFEB immunoprecipitated and blotted for MAP4K3 (text; the legend says FLAG immunoprecipitates)
[2] = molecular target: recombinant TFEB generated by in vitro transcription and translation (UniProt P19484); assay: pull-down; FLAG immunoprecipitates (purified FLAG-tagged proteins from transfected HEK293A) incubated with in vitro transcribed and translated TFEB; pulled down with an anti-TFEB antibody, immunoblotted; only the binder purified
[3] = molecular target: T1, recombinant GST-TFEB amino acids 1-37 (UniProt P19484); assay: pull-down; FLAG immunoprecipitates from transfected HEK293A incubated with recombinant GST-TFEB aa 1-37 or GST alone, then mixed with beads; eluate of GST-bound fractions blotted with anti-FLAG and anti-GST; both purified
T1 sequence: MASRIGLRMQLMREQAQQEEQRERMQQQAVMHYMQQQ

Measured: binding

kinase dead (KD)-MAP4K3-FLAG (from UniProt Q8IVH8) (enzyme)
binds: all assays above
